Over roughly 33,000 sequences, “E-score (-0.5 to 0.5)” has its median near -8e-05; the highest 2% begin near 0.23. The list shows a part of the results.
biological target: T1, Nrg2 (UniProt P38082); assay: PBM E-score (8-mer binding enrichment) (E-score (-0.5 to 0.5)); higher = stronger / more preferred TF binding; details: protein concentration: 100 nM; construct: GST-full length
T1 sequence: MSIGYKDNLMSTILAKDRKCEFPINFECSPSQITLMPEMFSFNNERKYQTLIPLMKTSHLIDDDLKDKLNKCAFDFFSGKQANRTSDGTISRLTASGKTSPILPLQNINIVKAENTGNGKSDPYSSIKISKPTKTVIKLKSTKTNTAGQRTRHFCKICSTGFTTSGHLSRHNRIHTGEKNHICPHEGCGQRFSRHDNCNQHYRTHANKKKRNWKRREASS
Description: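 Universal 'all 10-mer' protein binding microarrays (Agilent AMADID 015681) probed with GST-tagged S. cerevisiae TFs (full-length or DBD) made by in vitro transcription/translation (PURExpress), about 100-200 nM. Bound TF was detected with fluorescent anti-GST. Each ungapped 8-mer (which stands for itself and its reverse complement) is scored by the PBM enrichment score (E-score), a modified Wilcoxon-Mann-Whitney statistic from -0.5 to +0.5, computed with the Universal PBM Analysis Suite. Scale: above 0.35 generally sequence-specific binding.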

Q: Which “PBM E-score” value does the source give for GCCTGGAC here?
A: -0.0686

Q: For AGGTCGCG, which “PBM E-score” value is on record?
A: -0.0425

Q: With CGAGAGGC as the sequence, how does the “PBM E-score” value read?
A: -0.167

Q: How did the “PBM E-score” value turn out when ACCTACCA was run?
A: -0.0595

Q: How did the “PBM E-score” value turn out when AAATACTC was run?
A: -0.0877

Q: GCGTCTAA was tested. Which “PBM E-score” value did it give?
A: -0.0759

Q: For ATGGCGGG, which “PBM E-score” value is on record?
A: 0.00045

Q: How did the “PBM E-score” value turn out when CGCTAGAA was run?
A: -0.0308

Q: CGGCAGCA was tested. Which “PBM E-score” value did it give?
A: -0.087

Q: For GCGCTTAA, which “PBM E-score” value is on record?
A: 0.11

Q: CGACTTCC was tested. Which “PBM E-score” value did it give?
A: -0.172

Q: How did the “PBM E-score” value turn out when TCGTGGCA was run?
A: 0.0984

Q: For GGAGTCAC, which “PBM E-score” value is on record?
A: -0.192

Q: GCCTTTCA was tested. Which “PBM E-score” value did it give?
A: 0.00577

Q: For ATGGCAGG, which “PBM E-score” value is on record?
A: 0.12

Q: With GTCCGCAA as the sequence, how does the “PBM E-score” value read?
A: 0.00224

Q: With AGACAAGG as the sequence, how does the “PBM E-score” value read?
A: -0.194

Q: With ACTATGAA as the sequence, how does the “PBM E-score” value read?
A: 0.109

Q: Which “PBM E-score” value does the source give for ATGGGCGA here?
A: -0.111

Q: CGCAGCTC was tested. Which “PBM E-score” value did it give?
A: -0.00261

Q: With CCTATTGC as the sequence, how does the “PBM E-score” value read?
A: -0.0736

Q: For AAATACCT, which “PBM E-score” value is on record?
A: 0.191

Q: How did the “PBM E-score” value turn out when GCATGGGA was run?
A: -0.0572

Q: AAATTCTC was tested. Which “PBM E-score” value did it give?
A: -0.0106

Q: How did the “PBM E-score” value turn out when GATCCCAA was run?
A: 0.0162

Q: CGACCTGA was tested. Which “PBM E-score” value did it give?
A: 0.0565

Q: With GCTGTATA as the sequence, how does the “PBM E-score” value read?
A: 0.00165

Q: With ACACTGGA as the sequence, how does the “PBM E-score” value read?
A: 0.207

Q: How did the “PBM E-score” value turn out when AACGCCGT was run?
A: -0.0556

Q: For AATCAGCG, which “PBM E-score” value is on record?
A: 0.224

Q: How did the “PBM E-score” value turn out when GACATACA was run?
A: 0.246

Q: How did the “PBM E-score” value turn out when ACTAACTG was run?
A: 0.111

Q: For GCCAGAGA, which “PBM E-score” value is on record?
A: -0.129

Q: How did the “PBM E-score” value turn out when CATGAGGG was run?
A: 0.0287

Q: How did the “PBM E-score” value turn out when GTAGAGGA was run?
A: -0.252

Q: With CATTTGTC as the sequence, how does the “PBM E-score” value read?
A: -0.00312

Q: Which “PBM E-score” value does the source give for CATACTGA here?
A: 0.135

Q: For ACCCTCGG, which “PBM E-score” value is on record?
A: -0.0827

Q: Which “PBM E-score” value does the source give for ATAACTTC here?
A: 0.124

Q: How did the “PBM E-score” value turn out when GCCACTGA was run?
A: -0.0644

Q: CCCTTGAG was tested. Which “PBM E-score” value did it give?
A: 0.199

Q: GAAGGTTA was tested. Which “PBM E-score” value did it give?
A: -0.0296

Q: With AAGGAGGA as the sequence, how does the “PBM E-score” value read?
A: -0.283

Q: For CCATAACG, which “PBM E-score” value is on record?
A: 0.0769

Q: How did the “PBM E-score” value turn out when GGAAAATA was run?
A: 0.127

Q: How did the “PBM E-score” value turn out when GAGCCTGA was run?
A: -0.232

Q: Which “PBM E-score” value does the source give for AACGTCTA here?
A: -0.0654

Q: With AAGCGCTG as the sequence, how does the “PBM E-score” value read?
A: 0.06

Q: Which “PBM E-score” value does the source give for CTCAAGGA here?
A: 0.068

Q: AAGACCTC was tested. Which “PBM E-score” value did it give?
A: -0.262

Q: ACCCATAG was tested. Which “PBM E-score” value did it give?
A: -0.0908

Q: How did the “PBM E-score” value turn out when TCAGCCGA was run?
A: -0.0551

Q: For CTGTTACA, which “PBM E-score” value is on record?
A: 0.0698

Q: CCTCGCTA was tested. Which “PBM E-score” value did it give?
A: -0.234

Q: For GCAGGACA, which “PBM E-score” value is on record?
A: 0.0152

Q: AAATAAGA was tested. Which “PBM E-score” value did it give?
A: 0.0747

Q: ACCCGTTA was tested. Which “PBM E-score” value did it give?
A: 0.0912

Q: How did the “PBM E-score” value turn out when ATATAAGA was run?
A: 0.157

Q: With CCGCTCGC as the sequence, how does the “PBM E-score” value read?
A: -0.0913

Q: With CGTTTGCA as the sequence, how does the “PBM E-score” value read?
A: 0.169

Q: CAATGCTA was tested. Which “PBM E-score” value did it give?
A: -0.0203

Q: With CTGTCGAA as the sequence, how does the “PBM E-score” value read?
A: -0.0413

Q: With AGGCCAAA as the sequence, how does the “PBM E-score” value read?
A: 0.126

Q: For CAAGGAAC, which “PBM E-score” value is on record?
A: 0.0725

Q: For AAAGCAAG, which “PBM E-score” value is on record?
A: 0.226

Q: GCTTAAGA was tested. Which “PBM E-score” value did it give?
A: -0.1

Q: AAGATTCG was tested. Which “PBM E-score” value did it give?
A: 0.181

Q: How did the “PBM E-score” value turn out when AGTGATAA was run?
A: -0.128

Q: How did the “PBM E-score” value turn out when AGCTAACG was run?
A: -0.0986

Q: TCAGGCAA was tested. Which “PBM E-score” value did it give?
A: -0.0502

Q: ATGCAGAC was tested. Which “PBM E-score” value did it give?
A: 0.0103

Q: How did the “PBM E-score” value turn out when CCCATGAA was run?
A: 0.05

Q: CGGAGCTC was tested. Which “PBM E-score” value did it give?
A: -0.18

Q: For CTTCCAAA, which “PBM E-score” value is on record?
A: -0.0408

Q: GGACATAC was tested. Which “PBM E-score” value did it give?
A: 0.165

Q: Which “PBM E-score” value does the source give for ACTTAGAT here?
A: 0.134

Q: For CCTTTTAC, which “PBM E-score” value is on record?
A: 0.0855

Q: AACAAATG was tested. Which “PBM E-score” value did it give?
A: 0.0558

Q: For CGTGCATC, which “PBM E-score” value is on record?
A: -0.0219

Q: ACTGCCGC was tested. Which “PBM E-score” value did it give?
A: 0.143

Q: For AGTAAAAC, which “PBM E-score” value is on record?
A: -0.108

Q: ATCGTAAG was tested. Which “PBM E-score” value did it give?
A: 0.00567

Q: Which “PBM E-score” value does the source give for CCCGCGAA here?
A: 0.222

Q: GAAGATCC was tested. Which “PBM E-score” value did it give?
A: -0.17

Q: For AACGTTTG, which “PBM E-score” value is on record?
A: -0.043

Q: Which “PBM E-score” value does the source give for CAGCTAGA here?
A: -0.0377

Q: GTGCTCTA was tested. Which “PBM E-score” value did it give?
A: -0.0218

Q: AGATAACA was tested. Which “PBM E-score” value did it give?
A: 0.202

Q: How did the “PBM E-score” value turn out when CATAGAAC was run?
A: 0.0704

Q: How did the “PBM E-score” value turn out when CCGATACA was run?
A: 0.0316

Q: For CCCTCTGC, which “PBM E-score” value is on record?
A: -0.344

Q: Which “PBM E-score” value does the source give for ATGCTGCG here?
A: -0.0771

Q: For CTCAAACC, which “PBM E-score” value is on record?
A: 0.077

Q: How did the “PBM E-score” value turn out when AATGGCGG was run?
A: 0.0103

Q: Which “PBM E-score” value does the source give for AATCGGTC here?
A: -0.00023

Q: For GTACAGAC, which “PBM E-score” value is on record?
A: -0.174

Q: Which “PBM E-score” value does the source give for ACTAGTTG here?
A: 0.0727

Q: With CGAGGGAG as the sequence, how does the “PBM E-score” value read?
A: -0.151

Q: For CCATCTTA, which “PBM E-score” value is on record?
A: -0.00841

Q: How did the “PBM E-score” value turn out when CACAGTAG was run?
A: 0.14

Q: How did the “PBM E-score” value turn out when AGTCTGCA was run?
A: -0.202

Q: With CAGCAGCA as the sequence, how does the “PBM E-score” value read?
A: -0.0767

Q: For ATCATATG, which “PBM E-score” value is on record?
A: 0.0803

Q: AAGTCTGG was tested. Which “PBM E-score” value did it give?
A: -0.151

Q: With GACTCGCA as the sequence, how does the “PBM E-score” value read?
A: -0.0592

Q: With GATAACGA as the sequence, how does the “PBM E-score” value read?
A: 0.0109

Q: ATCCATCG was tested. Which “PBM E-score” value did it give?
A: -0.0274

Q: ATGTAGAG was tested. Which “PBM E-score” value did it give?
A: -0.102

Q: CAAAATTG was tested. Which “PBM E-score” value did it give?
A: 0.0809

Reference: the supplement of paper PMC3334620
